Measured values from PubChem BioAssay AID493014 (National Center for Advancing Translational Sciences (NCATS), 2011).
Where “and” joins values, the source holds several entries; their conditions need not be identical. Equal entries are not always repeated. The list shows a part of the results. Further columns of the screen follow, without active or inactive calls. The list favours compounds with an active or inconclusive main result. Words in brackets tell the shape of the fitted curve; partial curves, single points and poor fits give uncertain potencies.

Assay: qHTS Assay to Find Inhibitors of Chronic Active B-Cell Receptor Signaling
Settings: ABC-DLBCL IkBa-CBG/CBR reporter, luminescence ratio (green luciferase fused to IkBa over red control in TMD8 lymphoma cells), 4 h
In short: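 Compounds up to 46 uM were incubated four hours with TMD8 cells whose green CBG68 luciferase is fused to IkappaBalpha; red CBR luminescence normalised the signal, and concentration-effect curves were fitted to fusion, red and ratio data.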

[1] = measured here: CBR red luminescence, cell number
[2] = measured here: IkBa-CBG green luminescence

Structure (SMILES)	AC50 [1]	AC50 [2]
Oc1ccc(Br)cc1-c1cc(-c2ccc(Cl)cc2)n[nH]1	29.1 µM [falling, single point]	
CCC(=O)NCCc1nc2cc(NC(=O)Nc3ccccc3)ccc2n1C	10 µM [falling, partial curve]	
CCc1c(C)[nH]c2ccc(C)cc2c1=O	9.2 µM [rising, partial curve]	
O=C(CSc1nnc(C2CC2)n1C1CC1)c1cccs1	0.82 µM [rising, full curve, poor fit]	
COc1ccccc1NC(=O)OCC#CCOC(=O)Nc1ccccc1OC	25.1 µM [falling, single point]	
Cc1cccc(CCNC(=O)c2cnc3c(C)cccn3c2=O)c1	35.5 µM [falling, single point]	
COc1cc(SC)ccc1C(=O)Nc1ccccc1	13 µM [falling, partial curve]	
Cc1ccccc1-n1c(C)cc(/C=N/Nc2ccc([N+](=O)[O-])cn2)c1C	2.91 µM [falling, single point]	
O=C(NCCCn1ccnc1)/C(=C/c1cccs1)NC(=O)c1ccco1	0.708 µM [rising, full curve, poor fit]	
O=C(C1=C[C@@H](C2CCCCC2)C[C@@H](OCc2ccc(CO)cc2)O1)N1CCOCC1	35.5 µM [rising, single point]	
COC(=O)CN1C(c2ccc(OC)cc2)=Nc2ccc(Cl)cc2C1c1ccccc1 (stereo unspecified)	20.6 µM [falling, single point]	
Cc1[nH]n(-c2ccccc2)c(=O)c1/C=N/NC(=O)c1ccoc1C	5.8 µM [falling, full curve, poor fit]	
O=C(COc1cc2oc(=O)c3c(c2cc1Cl)CCC3)NCCCn1ccnc1	2.51 µM [rising, partial curve, poor fit]	
CCNC(=S)NNC(=O)c1cc(-c2cccc(C)c2)nc2ccccc12		35.5 µM [rising, partial curve, poor fit]
COc1cc2c(cc1NC(=O)COC(=O)/C=C/c1ccc([N+](=O)[O-])cc1)oc1ccccc12	3.16 µM [falling, single point]	
CSc1nc(Cc2ccccc2)nc2ccccc12	35.5 µM [rising, single point]	
O=C(c1ccc(Cl)cc1)N1CCN(c2ccnc3cc(Cl)ccc23)CC1	35.5 µM [falling, partial curve, poor fit]	
O=C(O)CCSc1nnc(COc2cccc3ccccc23)n1-c1cccc(Cl)c1	11.2 µM [falling, partial curve, poor fit]	
OC(c1cc(C(F)(F)F)nc2c(Cl)cc(Cl)cc12)C1CCCCN1 (stereo unspecified)	5.01 µM [falling, partial curve]	
O=C(NCc1ccco1)c1c(F)c(F)c(F)c(C(=O)NCc2ccco2)c1F	12.6 µM [falling, single point]	
Cn1c(=O)c2c(nc(NN=C3CCCCC3)n2C)n(C)c1=O	8.91 µM [falling, partial curve, poor fit]	
Cc1ccc(NCc2nnc(SCC(=O)N(Cc3ccccc3)C(C)(C)C)o2)c(C)c1	20.6 µM [falling, partial curve, poor fit]	

Structure (SMILES)	AC50 [1]	AC50 [2]
CCOC(=O)C1CCN(Cc2cc(=O)oc3c(C)c(C)ccc23)CC1	11.2 µM [falling, partial curve, poor fit]	
COc1ccc(C(=O)Nc2nc3ccc4nc(C)sc4c3s2)cc1	0.206 µM [falling, full curve, poor fit]	
CCC(C(=O)O/N=C(\N)c1ccc(C)cc1)c1ccccc1 (stereo unspecified)	0.461 µM [rising, full curve, poor fit]	
Cc1ccc(C(=O)NN=C2CCCCCC2)s1	8.91 µM [falling, partial curve, poor fit]	
O=C(O)CC/C(=N\NC(=O)c1ccc(F)cc1)c1ccc(Br)cc1	15.8 µM [falling, partial curve, poor fit]	
COc1ccc(/C=N/NC(=O)c2ccco2)cc1OCc1ccccc1	5.01 µM [falling, partial curve, poor fit]	
COc1cccc(-c2nnc(-c3ccc(C)o3)o2)c1	2.06 µM [falling, single point]	
CN(C)c1ccc(N=Cc2ccco2)cc1	3.16 µM [falling, full curve, poor fit]	
CC1CCCc2sc3nc(NCc4ccco4)n4ncnc4c3c21 (stereo unspecified)	29.1 µM [rising, single point]	
Cc1cccc(C(=O)Nc2ccccc2NC(=O)c2cccc(C)c2)c1	12.6 µM [falling, partial curve, poor fit]	
CC(=O)c1ccc(S(=O)(=O)N2CCNC(=O)C2)cc1	0.092 µM [rising, full curve, poor fit]	
CCCCCCCN1C2=NCCCN2c2ccccc21	14.1 µM [falling, single point]	
Nc1cc(=O)[nH]c(SCC(=O)Nc2ccc(Br)cc2)n1	29.1 µM [falling, single point]	
CC(=O)Nc1ccc(/C(C)=N/NC(=O)c2ccccc2Cl)cc1	20.6 µM [falling, partial curve, poor fit]	
Cc1ccc(C(=O)OCC(=O)NCc2ccco2)s1	22.4 µM [falling, single point]	
CC(=O)Nc1cc(O)cc(O)c1	35.5 µM [rising, single point]	
CN1CCN(C(=O)CCCN2C(=O)/C(=C/c3ccccc3)SC2=S)CC1	12.6 µM [falling, partial curve]	
Fc1ccc(-n2ncc3c(N4CCC(Cc5ccccc5)CC4)ncnc32)cc1	2 µM [falling, partial curve, poor fit]	
CC(=O)c1ccc(N2C(=O)N(Cc3ccccc3C#N)c3ccccc3S2(=O)=O)cc1	39.8 µM [falling, partial curve, poor fit]	
CC1C(=O)Nc2ccc(S(=O)(=O)N3CCN(c4cccc(Cl)c4)CC3)cc2NC1=O (stereo unspecified)	35.5 µM [falling, single point]	
CCOc1cccc2cc(-c3cn4cc(C)ccc4n3)c(=O)oc12	1.41 µM [falling, full curve]	
Cc1cc(S(=O)(=O)N2CCN(c3c(C)cccc3C)CC2)ccc1F	29.1 µM [rising, partial curve, poor fit]	

Molecules above containing a nitro group on carbon, in the order listed:
Structure (SMILES)	AC50 [1]	AC50 [2]
Cc1ccccc1-n1c(C)cc(/C=N/Nc2ccc([N+](=O)[O-])cn2)c1C	2.91 µM [falling, single point]	
COc1cc2c(cc1NC(=O)COC(=O)/C=C/c1ccc([N+](=O)[O-])cc1)oc1ccccc12	3.16 µM [falling, single point]	

Entries of single compounds from above.
`COc1cccc(-c2nnc(-c3ccc(C)o3)o2)c1` is listed with AC50 [1]: 2.06 µM [falling, single point]
`Cc1ccc(C(=O)OCC(=O)NCc2ccco2)s1` is listed with AC50 [1]: 22.4 µM [falling, single point]

(continued)

Structure (SMILES)	AC50 [1]	AC50 [2]
O=c1oc2cc(O)ccc2c2oc3cc(O)ccc3c12		6.51 µM [rising, partial curve]
CCOc1ccccc1NC(=S)N1CCN(c2nc(-c3ccc(F)cc3)cs2)CC1	35.5 µM [falling, partial curve, poor fit]	
c1ccc(-n2ncc3c(NCC4CCCO4)ncnc32)cc1 (stereo unspecified)	11.2 µM [falling, partial curve]	
Cc1ccc(-c2nc(CN3CCCCC3)cc(CN3CCCCC3)c2O)cc1	15.8 µM [falling, partial curve]	
COc1ccc(Cn2nc(-c3ccccc3)c(N3CCCCC3)cc2=O)cc1	5.62 µM [rising, partial curve, poor fit]	
Cc1cccc(CS(=O)(=O)Cc2ccc(C(=O)NCc3cccnc3)o2)c1	0.103 µM [falling, full curve, poor fit]	
COc1cccc(CC2CC(=O)N(CCc3ccc4c(c3)OCO4)C2=O)c1 (stereo unspecified)	32.6 µM [falling, single point]	
COc1ccccc1N/N=C1\COC(C)(C)CC1=O	0.501 µM [rising, full curve]	
Cc1ccc(NC(=O)NCC2CC2(Cl)Cl)cc1 (stereo unspecified)	2.24 µM [rising, partial curve, poor fit]	
COc1ccc(-n2nnnc2CNC(=O)C(=O)c2c(C)[nH]c3ccccc23)cc1	0.651 µM [falling, full curve, poor fit]	
COCc1c(C(=O)OCC(=O)c2c(N)n(CC(C)C)c(=O)n(C)c2=O)oc2ccccc12	22.4 µM [falling, single point]	
COc1ccccc1-c1nc(SCc2ccccn2)n[nH]1	0.708 µM [falling, full curve]	
COc1ccc(C)cc1NC(=O)CSc1nnc(COc2ccccc2)n1Cc1ccco1	25.1 µM [falling, single point]	
Cc1ccc(O)c(CNc2cccc(C)n2)c1	0.1 µM [rising, full curve, poor fit]	
O=C(c1cccc(Br)c1)c1coc2ccc(O)cc12	6.51 µM [rising, single point]	
O=C(COC(=O)c1ccc(Cl)s1)c1ccc[nH]1	0.282 µM [rising, full curve, poor fit]	
COC(=O)c1ccc(NC(=S)NNC(=O)CC(C)C)cc1	7.31 µM [falling, partial curve]	
CCCC(=O)Nc1ccc(C(=O)n2ccc(C)n2)cc1	12.6 µM [rising, partial curve, poor fit]	
CCOc1cc(N2CCOCC2)c(OCC)cc1NC(=O)CN1CCC(Cc2ccccc2)CC1	0.82 µM [rising, full curve, poor fit]	
O=C(Nc1cccc(Cl)c1)c1cnn2cccnc12	14.6 µM [falling, single point]	
Cc1oc(CC(C)C)cc1C(=O)Nc1cccc2ccccc12	5.01 µM [falling, full curve, poor fit]	
CC1CCC(C(C)C)C(OC(=O)Cn2c(-c3ccc(Br)cc3)[n+](C)c3ccccc32)C1 (stereo unspecified)	22.4 µM [falling, single point] and 17.8 µM [falling, partial curve, poor fit]	
